This assay in a line: qHTS Assay for Lipid Storage Modulators in Drosophila S3 Cells.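 For cell number change: cells counted by Cell Tracker Red CMTPX staining in the red channel.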 The settings on record: BODIPY lipid droplet fluorescence, 18-24 h; for cell number change: measured here: cell count max response, cells fed with added oleic acid. Summed up: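 Drosophila S3 cells got compounds at several concentrations plus oleic acid (400 uM solution). Laser-scanning cytometry with 488 nm excitation read lipid droplets at 500-530 nm and cells at 575-640 nm. Percent activity was relative to 20 uM Triacsin C.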

The mark [1] stands for this setting: measured here: cell number channel AC50, cells fed with added oleic acid.
[2] abbreviates: measured here: lipid fluorescence (Fed channel) AC50, cells fed with added oleic acid.

This is one part of the list. The main result of the screen is listed elsewhere. These columns were measured beside it and carry no call. Most of these compounds were active or inconclusive in the main read-out, so they are no random draw. Words in brackets tell the shape of the fitted curve; partial curves, single points and poor fits give uncertain potencies.

In the case of `O=C(CSc1ccc(-c2ccccc2)nn1)Nc1ccc2c(c1)OCCO2`, the cell number change is -6.74%. Also, the AC50 under setting [1] is 6.51 µM [rising, single point]. Further, under setting [2], the AC50 is 1.46 µM [rising, full curve].
Turning to `Cc1cccc(OCCNC(=O)c2cncc(Br)c2)c1`, the cell number change was -1.76%.
For the compound `CCCCc1cc(=O)oc2cc(OCC(=O)NCc3ccccn3)ccc12`, the cell number change is -20.9%. In addition, under setting [2], the AC50 is 7.31 µM [falling, partial curve].
Take `O=C(CSc1nncn1-c1cccnc1)Nc1cccc(C(F)(F)F)c1`: the cell number change was -10%.
For the compound `CC(NC(=O)c1ccc(N(C)C)cc1)c1ccc(F)cc1` (stereo not given), the cell number change came out at 4.56%. Besides, under setting [2], the AC50 is 4.11 µM [rising, single point].
As for `COc1ccc(N2CCN(C(=O)Cc3csc(NC(=O)Nc4ccccc4OC)n3)CC2)cc1`, the cell number change amounted to 69.2%. The AC50 under setting [1] was 18.4 µM [rising, single point]. The AC50 under setting [2] is 0.103 µM [rising, full curve, poor fit].
With `O=C(CCSCc1ccccc1F)N1CCN(c2ccccn2)CC1`, the cell number change came to 20.5%. Besides, under setting [2], the AC50 is 11.6 µM [rising, partial curve].
In the case of `CCOC(=O)N1CCC(NC(=O)c2csc3c2CCCC3)CC1`, the cell number change was -56.2%. Moreover, the AC50 under setting [1] was 20.6 µM [falling, partial curve]. Moreover, under setting [2], the AC50 is 14.6 µM [falling, partial curve].
On to `OCCCNCc1ccc(-c2ccccc2)cc1`, for which the cell number change amounted to 44.7%. Under setting [1], the AC50 was 0.0116 µM [rising, full curve, poor fit]. Under setting [2], the AC50 is 32.6 µM [rising, single point].
As to `CCOC(=O)c1ccc(NC(=O)CC2OCCN(CC)C2=O)cc1` (stereo not given), the cell number change was 3.1%.
As for `O=c1ccccn1CCOc1ccccc1Cl`, the cell number change worked out at 5.32%. In addition, the AC50 under setting [2] is 3.26 µM [rising, partial curve, poor fit].
Consider `O=C(C1=C(O)C(=O)N(CCCN2CCOCC2)C1c1ccncc1)c1cc2ccccc2o1` (stereo not given), for which the cell number change was found to be 12%. Under setting [2], the AC50 is 0.0326 µM [rising, full curve, poor fit].
Turning to `O=C(O)Cc1ccc(-n2cccc2)cc1`, the cell number change came out at 2.12%.
Take `Cn1c(=O)oc2cc(S(=O)(=O)N3CCCc4ccccc43)ccc21`: the cell number change was 0.786%.
The same measure, in the same setting: the figure for `Cc1ccc(N(C)S(=O)(=O)c2cccc(C(=O)NCC(c3cccs3)N3CCOCC3)c2)cc1` (stereo not given) is 28.2%.
Same read-out and setting: the figure for `c1ccc2c(Cn3nnc4ccccc43)cccc2c1` is -1.15%.
As to `O=C(CSCc1c(F)cccc1F)Nc1ccccc1`, the cell number change was found to be 3.67%. The AC50 under setting [2] was 6.51 µM [rising, single point].
Regarding `CCN(CC)S(=O)(=O)c1ccc(/C=C/C(=O)Nc2ccc(F)c(F)c2F)cc1`, the cell number change is -32.4%. In addition, the AC50 under setting [1] is 9.2 µM [falling, single point]. Further, under setting [2], the AC50 was 0.00517 µM [falling, full curve, poor fit].
For the compound `CS(=O)(=O)N1CCN(c2ccccc2NC(=O)c2ccc3ccccc3c2)CC1`, the cell number change was -25.2%. Also, under setting [2], the AC50 is 23.1 µM [falling, single point].
Consider `CC(=O)Cc1nsc(NC(=O)c2ccco2)n1`, for which the cell number change was -4.77%. Moreover, the AC50 under setting [2] is 32.6 µM [falling, single point].
For `CCCN1CCC(NC(=O)Nc2ccc(Br)cc2)CC1`, the cell number change is -3.51%. Moreover, the AC50 under setting [2] was 29.1 µM [rising, single point].
As for `O=c1c2ccc(Cl)cc2[nH]c(=S)n1Cc1cccnc1`, the cell number change is 33.5%.
Consider `C=C1CCC[C@]2(C)C[C@H]3OC(=O)C(CNC(C)CCCC(C)C)[C@H]3CC12` (stereo not given in full), for which the cell number change was -53.5%. For the same compound, the half-maximal activity concentration (AC50) under setting [1] was 10.3 µM [falling, partial curve]. In addition, the AC50 under setting [2] is 16.4 µM [falling, partial curve].
Regarding `Cc1ccc(C2Nc3cccc4cccc(c34)N2)s1`, the cell number change was 22.6%. The AC50 under setting [2] is 1.84 µM [rising, partial curve, poor fit].
In the case of `COc1cc(NC(C)=O)c2ncccc2c1[N+](=O)[O-]`, the cell number change is 23.2%. Moreover, under setting [2], the AC50 was 8.2 µM [rising, partial curve].
For the compound `O=C(CC1C(=O)NCCN1C(=O)Nc1ccccc1)Nc1ccc(F)cc1` (stereo not given), the cell number change stood at 17%. Moreover, under setting [1], the AC50 is 0.00461 µM [falling, full curve, poor fit].
For `O=C(CN1C2CCCC1CC(NC(=O)C1CCCCC1)C2)NCc1ccc(F)cc1` (stereo not given), the cell number change is -16.2%. The concentration at half-maximal activity (AC50) under setting [2] is 14.6 µM [falling, single point].
On to `Cc1cccc(Nc2nc(N3CCN(C)CC3)nc(N)c2[N+](=O)[O-])c1`, for which the cell number change was 15.8%.
In the case of `CC1=NOC(=O)/C1=C\c1ccccc1`, the cell number change is -21.1%. The AC50 under setting [2] is 0.184 µM [falling, full curve].
Regarding `Cc1cc(C)cc(C(=O)NN2CCN(C)CC2)c1`, the cell number change was determined as 74.2%. The AC50 under setting [1] was 29.1 µM [rising, single point]. Under setting [2], the AC50 was 29.1 µM [rising, single point].
With `COC(=O)C(C(=O)OC)C(C)C(C(=O)OC)C(=O)OC`, the cell number change was -40.9%. Further, under setting [1], the AC50 was 29.1 µM [falling, partial curve, poor fit]. Also, under setting [2], the AC50 was 4.61 µM [falling, partial curve, poor fit].
Consider `COc1ccccc1NC(=O)CSc1nnc(-c2ccoc2C)n1CCc1ccccc1`, for which the cell number change is -7.45%. Also, under setting [2], the AC50 is 0.92 µM [rising, single point].
Consider `O=C(COn1nnc2ccc(Cl)cc21)NC12CC3CC(CC(C3)C1)C2`, for which the cell number change is -54.3%. The AC50 under setting [1] was 29.1 µM [falling, partial curve, poor fit].
Regarding `CN(C1=C(NC(=O)c2ccccc2)C(=O)c2ccccc2C1=O)C1CCS(=O)(=O)C1` (stereo not given), the cell number change stood at 5.75%. For the same compound, the AC50 under setting [2] was 23.1 µM [falling, single point].
In the case of `O=C(/C=C/c1cccc2ccccc12)c1ccncc1`, the cell number change is -24.4%. For the same compound, under setting [2], the AC50 was 5.8 µM [falling, partial curve].
With `Cc1ccccc1OCC(=O)NNC(=O)Nc1ccc(Cl)cc1`, the cell number change was -25.8%. Under setting [2], the AC50 was 32.6 µM [falling, single point].
Consider `Cn1cccc1CNC1CCCCC1`, for which the cell number change is -19.5%. Also, the AC50 under setting [2] was 16.4 µM [falling, partial curve].
Regarding `Cc1ccc(CNC(=O)[C@@H](NC(=O)C2CCN(C(=O)[C@@H](N)CC(C)C)CC2)C(C)C)cc1`, under setting [2], the AC50 was 29.1 µM [rising, single point].
`CCCNC(=O)CCc1c(C)nc2nc(C)nn2c1C`: the cell number change was -41.1%. Besides, the AC50 under setting [1] is 13 µM [falling, partial curve, poor fit].
Regarding `O=C1C=C(c2cccc(O)c2)C[C@@H](c2ccc(F)cc2)C1`, the cell number change turned out to be 6.79%.
With `CC(=O)Nc1cc(-c2nn3c(C)nnc3s2)ccc1C`, the cell number change came to 18%.
With `O=C(NCc1ccc2c(c1)OCO2)c1ccc(S(=O)(=O)NCC2CCCO2)cc1` (stereo not given), the cell number change stood at 3.18%. Under setting [2], the AC50 is 16.4 µM [rising, partial curve].

For the origin of these results see PubChem BioAssay AID2685 (National Center for Advancing Translational Sciences (NCATS), 2010).
